Among the data in PMC2681475 are binding values, retold here.

Amino acid sequences for entries named in this document (tags omitted).
UniProt P04792: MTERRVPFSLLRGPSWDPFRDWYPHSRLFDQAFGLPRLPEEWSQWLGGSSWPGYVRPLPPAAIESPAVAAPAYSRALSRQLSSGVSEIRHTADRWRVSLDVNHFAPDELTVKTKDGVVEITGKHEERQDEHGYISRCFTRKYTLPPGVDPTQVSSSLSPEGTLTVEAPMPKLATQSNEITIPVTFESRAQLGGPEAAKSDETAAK
UniProt P25963: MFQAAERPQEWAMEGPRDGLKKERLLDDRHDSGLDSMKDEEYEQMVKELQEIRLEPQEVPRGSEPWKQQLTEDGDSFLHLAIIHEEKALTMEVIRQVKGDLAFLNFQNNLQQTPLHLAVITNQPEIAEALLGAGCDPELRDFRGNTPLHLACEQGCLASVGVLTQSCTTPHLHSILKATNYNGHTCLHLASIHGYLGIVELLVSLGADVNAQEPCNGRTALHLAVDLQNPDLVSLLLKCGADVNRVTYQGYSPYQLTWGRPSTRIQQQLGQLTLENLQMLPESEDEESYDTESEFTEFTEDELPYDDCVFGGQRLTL

These are yes or no findings as the source states them, for the method shown. In cells and extracts the contact can be indirect. Some entries that bind do so weakly or less than the wild type.

The target of this experiment is Heat shock protein 27 (human (endogenous in Hep3B, MHCC97L, MHCC97H)) (UniProt P04792). The experiment can be described thus: co-IP; immunoprecipitation with anti-HSP27 antibody from lysates (1 mg total protein) of Hep3B, MHCC97L and MHCC97H cells, 4°C overnight, Protein G-Sepharose; western blot; 20 mM Tris pH 7.5, 150 mM NaCl, 1% Triton X-100. Background: In western blotting, separated proteins are transferred to a membrane and probed.

Consider IκBα (from UniProt P25963 1-317), for which the binding result is given as “binds”.
